The assay has as its system A549 cells. The format is cell-based. Conditions: A549 non-small cell lung cancer cells, MTT, 5 days incubation.

`N.N.[Cl][Pt][Cl]` [Cisplatin, cis-diamminedichloroplatinum (II)] came in with an IC50 of 1500 nM.

The IC50 is the concentration needed to halve the response being measured. Read a high IC50 as weaker potency.

The values above are taken from patent US20180055812A1, “METHOD AND COMPOSITIONS FOR TREATMENT OF CANCER” (priority 2008, published 2018).
